Record: PubChem BioAssay AID1259271 (Sanger Institute, 2017)

Aim: 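Kinase siRNAs that make BYL719, cetuximab or trametinib kill more cells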 (follow-up of hits)
Cell system: RKO colorectal cancer cells
Knock-down reagent: single siRNA against human genes
Conditions: anchor drug added to each siRNA well, cetuximab 5 µg/ml, trametinib 10 nM or BYL719 1 µM, compared with DMSO vehicle; exposure length not given
Read-out: 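Synergy score for each anchor drug (trametinib 10 nM, cetuximab 5 µg/ml, BYL719 1 µM, against DMSO) and survival versus control pool 2 (non-targeting), each a replicate mean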
Direction: synergy score with BYL719 and synergy score with cetuximab and synergy score with trametinib: higher = stronger synthetic lethality with the drug
Rule for the call: 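Called active if the synergy score passes 0.10 for one or more anchor drugs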
Calls: active = synergy with at least one drug; inactive = no synergy with any drug
The deposit covers 160 reagents; below is a part drawn at random. Of all reagents, 124 (78%) were called active. 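Each row is one of four siRNAs per gene; gene-level confirmation, requiring two siRNAs in several cell lines, is not included.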 The numbers tell different reagents against one gene apart. Not all columns of the deposit are shown. No sequences are given here. Not given: the amount of reagent, the time to read-out.

Knock-down of PIK3CA (GeneID 5290) #1 resulted in: synergy score with BYL719 = 0.0802; synergy score with cetuximab 0.129; synergy score with trametinib 0.291; active.
Depletion of PIK3CA (GeneID 5290) #2 gave: synergy score with BYL719 = -0.0403; synergy score with cetuximab 0.19; synergy score with trametinib 0.298; active.
With knock-down of PIK3CA (GeneID 5290) #3, the record shows synergy score with BYL719 = 0.0542; synergy score with cetuximab 0.00965; synergy score with trametinib 0.349; active.
For PIK3CA (GeneID 5290) #4, the values are synergy score with BYL719 = 0.0373; synergy score with cetuximab 0.177; synergy score with trametinib 0.206; active.
After knock-down of CRIM1 (GeneID 51232) #1, the screen gave synergy score with BYL719 = -0.0194; synergy score with cetuximab -0.00112; synergy score with trametinib 0.131; active.
With knock-down of CRIM1 (GeneID 51232) #2, the screen gave synergy score with BYL719 = -0.197; synergy score with cetuximab 0.0623; synergy score with trametinib 0.0959; inactive.
With knock-down of CRIM1 (GeneID 51232) #3 the results were synergy score with BYL719 = -0.13; synergy score with cetuximab -0.0717; synergy score with trametinib 0.12; active.
Against CRIM1 (GeneID 51232) #4 the deposit lists synergy score with BYL719 = -0.0529; synergy score with cetuximab 0.00547; synergy score with trametinib 0.0648; inactive.
For GTF2H1 (GeneID 2965) #1, the values are synergy score with BYL719 = -0.045; synergy score with cetuximab 0.0616; synergy score with trametinib 0.189; active.
Knock-down of GTF2H1 (GeneID 2965) #2 gave: synergy score with BYL719 = -0.269; synergy score with cetuximab 0.0679; synergy score with trametinib 0.119; active.
Against GTF2H1 (GeneID 2965) #3 the deposit lists synergy score with BYL719 = -0.211; synergy score with cetuximab -0.155; synergy score with trametinib -0.138; inactive.
GTF2H1 (GeneID 2965) #4 scored synergy score with BYL719 = -0.0242; synergy score with cetuximab 0.0517; synergy score with trametinib 0.212; active.

Ordered by “synergy score with trametinib” (lowest first): some entries from above.
GTF2H1 (GeneID 2965) #3: synergy score with BYL719 = -0.211; synergy score with cetuximab = -0.155; synergy score with trametinib = -0.138; outcome = inactive
GTF2H1 (GeneID 2965) #4: synergy score with BYL719 = -0.0242; synergy score with cetuximab = 0.0517; synergy score with trametinib = 0.212; outcome = active

Continued:
SYNCRIP (GeneID 10492) #1 showed synergy score with BYL719 = 0.027; synergy score with cetuximab 0.103; synergy score with trametinib 0.0885; active.
SYNCRIP (GeneID 10492) #2 scored synergy score with BYL719 = 0.00631; synergy score with cetuximab 0.0649; synergy score with trametinib 0.209; active.
For SYNCRIP (GeneID 10492) #3, the values are synergy score with BYL719 = 0.303; synergy score with cetuximab 0.202; synergy score with trametinib 0.389; active.
Depletion of SYNCRIP (GeneID 10492) #4 resulted in: synergy score with BYL719 = 0.102; synergy score with cetuximab 0.103; synergy score with trametinib 0.212; active.
After knock-down of AK2 (GeneID 204) #1, the record shows synergy score with BYL719 = 0.188; synergy score with cetuximab 0.346; synergy score with trametinib 0.247; active.
Silencing of AK2 (GeneID 204) #2 came out at: synergy score with BYL719 = 0.0507; synergy score with cetuximab 0.0303; synergy score with trametinib 0.267; active.
Knock-down of AK2 (GeneID 204) #3 gave: synergy score with BYL719 = -0.182; synergy score with cetuximab -0.155; synergy score with trametinib -0.0654; inactive.
For AK2 (GeneID 204) #4, the entry reads synergy score with BYL719 = 0.0894; synergy score with cetuximab -0.104; synergy score with trametinib 0.308; active.
